The record followed here is paper PMC7381744.

In one assay the target is T1, Myc-NONO (human) (UniProt Q15233).
T1 sequence: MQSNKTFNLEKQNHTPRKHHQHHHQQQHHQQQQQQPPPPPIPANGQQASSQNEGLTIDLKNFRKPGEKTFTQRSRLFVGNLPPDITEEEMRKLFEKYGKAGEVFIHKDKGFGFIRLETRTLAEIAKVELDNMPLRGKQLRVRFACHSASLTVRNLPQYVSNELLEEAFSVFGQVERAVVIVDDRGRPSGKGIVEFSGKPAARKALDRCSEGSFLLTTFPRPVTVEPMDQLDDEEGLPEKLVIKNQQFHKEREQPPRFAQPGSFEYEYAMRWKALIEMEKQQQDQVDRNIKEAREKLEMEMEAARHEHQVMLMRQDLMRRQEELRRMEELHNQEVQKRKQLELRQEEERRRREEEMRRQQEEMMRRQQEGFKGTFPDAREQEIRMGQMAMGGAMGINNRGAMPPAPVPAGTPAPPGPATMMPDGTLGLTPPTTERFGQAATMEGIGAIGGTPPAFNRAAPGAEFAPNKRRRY
The assay is described as follows: co-IP; HEK293T cells transfected with Flag-STAT3 and Myc-NONO alone or in combination; lysate immunoprecipitated with Myc antibody, western blot with Myc and Flag antibodies; lysis buffer 50 mM Tris pH 7.4, 150 mM NaCl, 1% Triton X100, 1 mM EDTA. For orientation: Immunoblotting shows a protein as a band on a membrane.

A further assay addresses T2, RFP-NONO (human) (UniProt Q15233).
T2 sequence: T1 sequence
The assay is described as follows: fluorescence cross-correlation spectroscopy (FCCS); live cells co-expressing GFP-STAT3 and RFP-NONO; strength given as relative cross-correlation amplitude, compared with GFP and RFP-NONO.

The target of assay [1] is T3, NONO (endogenous, MDA-MB-231) (human (endogenous in MDA-MB-231)) (UniProt Q15233).
T3 sequence: T1 sequence
The assay is described as follows: co-IP; MDA-MB-231 cell lysates immunoprecipitated with IgG, NONO or STAT3 antibodies; western blot with STAT3 and NONO antibodies; lysis buffer 50 mM Tris pH 7.4, 150 mM NaCl, 1% Triton X100, 1 mM EDTA.

Results are given in words; binding and its absence hold for the method and conditions named. For part of these data: In cells and extracts the contact can be indirect. Some entries that bind do so weakly or less than the wild type. For part of these data: Sequences can lack the tags named with a protein.

“Flag-STAT3 (from UniProt P40763-1 1-770)”: the binding entry with Myc-NONO (human) is “binds”. Take GFP-STAT3 (from UniProt P40763-1 1-770): the binding entry with RFP-NONO (human) is reported as “binds”. On to “STAT3 (endogenous, MDA-MB-231) (from UniProt P40763-1 1-770)”, for which the binding entry in assay [1] is “binds”.
